Values from PubChem BioAssay AID1259308 (NCATS, 2017)

- Test: 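Candidate targets for better recombinant protein yield in mammalian cells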 (primary screen)
- Cell system: human HEK293 embryonic kidney cells stably expressing firefly luciferase (HEK-CMV-Luc2-Hygro)
- Reagent: single siRNA against human genes, 0.8 pmol siRNA per well
- Timing: 72 h
- Detection: 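Luciferase light (ONE-Glo) measured on one replicate plate set and viability (CellTiter-Glo) on the other, scaled to a negative control siRNA, with robust z-scores and luciferase per cell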
- Direction: total luciferase, z-score: higher = more reporter protein produced
- Call rule: 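Active when the median/MAD z-score for overall luciferase is greater than 3; a gene was taken forward for validation with new siRNAs if at least two of its three siRNAs passed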
- Calls: active = raised luciferase; inactive = no rise
The whole screen tested about 59,000 reagents; shown is a part drawn at random. About 1,510 of them (2.6%) count as active. 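Calls use total luciferase alone and ignore viability, so some active siRNAs may act by altering cell number.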 The numbers tell different reagents against one gene apart. Further read-outs or replicates are left out here. No sequences are given here.

Knock-down of CCDC148 (GeneID 130940) #1 came out at: total luciferase, z-score 2.24; inactive.
CCDC148 (GeneID 130940) #2 showed total luciferase, z-score 0.635; inactive.
Knock-down of CCDC148 (GeneID 130940) #3 came out at: total luciferase, z-score -0.759; inactive.
Knock-down of HDHD5 (GeneID 27440) #1 resulted in: total luciferase, z-score 0.938; inactive.
Silencing of HDHD5 (GeneID 27440) #2 came out at: total luciferase, z-score -0.704; inactive.
With knock-down of HDHD5 (GeneID 27440) #3 the results were total luciferase, z-score 0.383; inactive.

Copied from the list:
CCDC148 (GeneID 130940) #1, Outcome = inactive
For “Outcome”, HDHD5 (GeneID 27440) #3 is entered as inactive

Further results follow.
PLCG1 (GeneID 5335) #1 scored total luciferase, z-score -0.155; inactive.
After knock-down of PLCG1 (GeneID 5335) #2, the screen gave total luciferase, z-score -0.675; inactive.
With knock-down of PLCG1 (GeneID 5335) #3, the record shows total luciferase, z-score -0.116; inactive.
For SLC35E3 (GeneID 55508) #1, the values are total luciferase, z-score -0.437; inactive.
With knock-down of SLC35E3 (GeneID 55508) #2, the screen gave total luciferase, z-score 1.19; inactive.
Silencing of SLC35E3 (GeneID 55508) #3 resulted in: total luciferase, z-score -0.0817; inactive.
